{
  "source": "PubChem BioAssay AID1259415",
  "about": "(National Center for Advancing Translational Sciences (NCATS), 2018)",
  "note": "In all, about 410,000 compounds went through this assay and about 18,000 (4.4%) were called active. The inconclusive results got no clear call from the source; some entries with a clear call stand among them for comparison. No stated cut-off is given here; in the data, active means activity change below about -60%; inconclusive means no clear call, values can overlap the other calls; inactive means above about -39%. On the % scale 0 is the no-effect control and ±100 the full control effect.",
  "data": [
    {"experiment": "qHTS Assay for inhibitors of the human cytomegalovirus (HCMV)", "conditions": "HFF cells, HCMV-luciferase reporter, 72 h; at 57.5 µM; stronger effect = lower value", "method_in_brief": "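Luciferase read-out from HCMV-luciferase-infected HFFs (MOI 1 PFU/cell) 72 h post infection at 37C; compounds added after 16 h cell attachment; activity normalized between buffer-only basal and Salinomycin (10uM) inhibitor controls.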", "values": [
      {"smiles": "NC(=O)c1nsc(C(=O)N(c2ccccc2)C(C(=O)NC2CCCC2)c2ccc3ncccc3c2)c1N", "note": "(stereo not drawn)", "activity change, negative = inhibition": "inconclusive: -45.5%"},
      {"smiles": "Nc1c(-c2cccc(Cl)c2)cnn1-c1cccc([N+](=O)[O-])c1", "activity change, negative = inhibition": "inconclusive: -49.3%"},
      {"smiles": "Cc1cc(C)c2c(ccc3cccc[n+]32)c1", "activity change, negative = inhibition": "inconclusive: -52.3%"},
      {"smiles": "O=C(CN1CCN(c2ccccn2)CC1)N1CC(O)CO1", "note": "(stereo not drawn)", "activity change, negative = inhibition": "inconclusive: -51.3%"},
      {"smiles": "COc1ccc(NC(=O)CCNS(=O)(=O)c2cc(Br)ccc2Br)cc1S(N)(=O)=O", "activity change, negative = inhibition": "inconclusive: -41.5%"},
      {"smiles": "Cc1ccc(NC(=S)NCCC(c2ccccc2)c2ccccc2)c(C)c1", "activity change, negative = inhibition": "active: -62.2%"},
      {"smiles": "COC(=O)c1cc(C)nc(Sc2ccccc2NC(C)=O)n1", "activity change, negative = inhibition": "inconclusive: -55%"},
      {"smiles": "CCc1ccc(NC(=O)c2cnn(-c3c(C)cccc3C)c2C2CCNCC2)cc1", "activity change, negative = inhibition": "inconclusive: -49.9%"},
      {"smiles": "CCn1c(C)cc(/C=C2/SC(=S)N(CC(=O)O)C2=O)c1C", "activity change, negative = inhibition": "inconclusive: -50.2%"},
      {"smiles": "CC1CC(C)CN(C(=O)C2CCN(C(=O)Nc3ccccc3)CC2)C1", "note": "(stereo not drawn)", "activity change, negative = inhibition": "inactive: -19.9%"},
      {"smiles": "O=c1[nH]c(=S)[nH]c(O)c1N=Nc1cccc(S(=O)(=O)N2CCOCC2)c1", "activity change, negative = inhibition": "inconclusive: -47.8%"},
      {"smiles": "CCc1ccc(NC(=O)Cn2c(=O)n(Cc3ccccc3)c(=O)c3oc4ccccc4c32)cc1", "activity change, negative = inhibition": "inactive: 13.1%"},
      {"smiles": "Cc1cc(C(=O)Nc2sccc2C#N)c2ccccc2n1", "activity change, negative = inhibition": "inactive: 4.24%"},
      {"smiles": "COc1ccc(Br)cc1CNc1ccc2[nH]c(=O)[nH]c2c1", "activity change, negative = inhibition": "inconclusive: -41.5%"},
      {"smiles": "CC(C)c1ccc(NC(=O)C2CCCN(S(=O)(=O)c3cccnc3)C2)cc1", "note": "(stereo not drawn)", "activity change, negative = inhibition": "inconclusive: -53%"},
      {"smiles": "CCCC(NC(=O)CCc1c(C)c2cc3c4c(oc3c(C)c2oc1=O)CCCC4)C(=O)O", "note": "(stereo not drawn)", "activity change, negative = inhibition": "inconclusive: -49.9%"},
      {"smiles": "CC(C)(C)OC(=O)NCC(=O)Oc1cc2oc(=O)cc(-c3ccccc3)c2cc1Cl", "activity change, negative = inhibition": "active: -76.2%"},
      {"smiles": "COc1ccc(OCCN2CCOCC2)cc1", "activity change, negative = inhibition": "inactive: 40.4%"},
      {"smiles": "O=C(CNc1cccc(S(=O)(=O)N2CCCCC2)c1)Nc1cccc(F)c1", "activity change, negative = inhibition": "inconclusive: -43.2%"},
      {"smiles": "COc1ccc(OC)c(-n2c(C)cc(/C=C3\\C(=N)N4N=C(CC(=O)N5CCOCC5)SC4=NC3=O)c2C)c1", "activity change, negative = inhibition": "inconclusive: 0%"},
      {"smiles": "O=C(NC1CCCCC1)c1ccccc1NC(=S)NC(=O)C1CCC1", "activity change, negative = inhibition": "active: -61.7%"},
      {"smiles": "CC(=O)NCCC(=O)NCc1ccc(F)cc1", "activity change, negative = inhibition": "inactive: 50.5%"},
      {"smiles": "Clc1cccc(Cl)c1C1N2CCCN12", "note": "(stereo not drawn)", "activity change, negative = inhibition": "active: -63.1%"},
      {"smiles": "CCS(=O)(=O)c1ncc(Cl)c(C(=O)N(Cc2ccccc2)Cc2ccco2)n1", "activity change, negative = inhibition": "active: -98.8%"},
      {"smiles": "NC(=O)C(C1=CCCCC1)c1ccccc1", "note": "(stereo not drawn)", "activity change, negative = inhibition": "inconclusive: -41.7%"},
      {"smiles": "COC(=O)C(=C/C(C)=C/c1cccnc1)C(=O)OC", "activity change, negative = inhibition": "inconclusive: -44.7%"},
      {"smiles": "COc1ccc(N2CCN(C(=O)c3ccc(CS(=O)Cc4ccc(C)cc4)o3)CC2)cc1", "note": "(stereo not drawn)", "activity change, negative = inhibition": "inconclusive: -49.2%"},
      {"smiles": "COc1ccc(C(=O)NCCS(=O)(=O)NC(C)c2ccccc2)cc1", "note": "(stereo not drawn)", "activity change, negative = inhibition": "inactive: -35.8%"},
      {"smiles": "Cc1ccc(C)c(CN2C(=O)c3ccccc3Sc3ccc(C(=O)NC4CCCC4)cc32)c1", "activity change, negative = inhibition": "inconclusive: -48.9%"},
      {"smiles": "CS(=O)(=O)N(CC(=O)NC1CC1)c1cccc(F)c1", "activity change, negative = inhibition": "inconclusive: -42.3%"},
      {"smiles": "COCCCN1C(=O)c2ccc(C(=O)NCc3ccco3)cc2C1=O", "activity change, negative = inhibition": "inactive: -11.7%"},
      {"smiles": "COc1ccc(NC(=O)c2c(C)oc3ccc(O)c(CN4CCCC(C)C4)c23)cc1Cl", "note": "(stereo not drawn)", "activity change, negative = inhibition": "inconclusive: -49.1%"},
      {"smiles": "CCCC(O)(c1ccccc1)C(CN1CCOCC1)c1ccccc1", "note": "(stereo not drawn)", "activity change, negative = inhibition": "inconclusive: -58.5%"},
      {"smiles": "Cc1cccc(C)c1NC(=O)CNC(=O)c1ccccc1OCc1ccccc1", "activity change, negative = inhibition": "inconclusive: -46.9%"},
      {"smiles": "Cc1ccn2c(Nc3ccc4c(c3)OCO4)c(-c3ccco3)nc2c1", "activity change, negative = inhibition": "inactive: 50.5%"},
      {"smiles": "COc1ccc(N2CCN(C(CNS(=O)(=O)c3c(C)cc(C)cc3C)c3ccco3)CC2)cc1", "note": "(stereo not drawn)", "activity change, negative = inhibition": "inconclusive: -57.5%"},
      {"smiles": "CN1/C(=C\\C(=O)C[n+]2cccc(Br)c2)C(C)(C)c2ccccc21", "activity change, negative = inhibition": "active: -83.3%"},
      {"smiles": "CCCOc1ccc(/C=C/C(=O)Nc2ccc([N+](=O)[O-])cc2)cc1", "activity change, negative = inhibition": "active: -69.6%"},
      {"smiles": "O=C(Nc1cccc(S(=O)(=O)N2CCOCC2)c1)C1CCN(S(=O)(=O)c2ccccc2)CC1", "activity change, negative = inhibition": "inconclusive: -48.1%"},
      {"smiles": "c1ccc(Cn2ccnc2)cc1", "activity change, negative = inhibition": "inconclusive: -45.6%"},
      {"smiles": "Cc1cc(NC(=O)CCC(=O)N(Cc2ccccc2)C2(C(=O)NC3CCCCC3)CCCC2)no1", "activity change, negative = inhibition": "inconclusive: -47.4%"},
      {"smiles": "Brc1ccc2nc(-c3ccncc3)c(NC3CCCC3)n2c1", "activity change, negative = inhibition": "inconclusive: -54.5%"},
      {"smiles": "CCN(CC(=O)Nc1ccc(OC)cc1)C(=O)COc1cccc2c1OC(C)(C)C2", "activity change, negative = inhibition": "inactive: -19.1%"}
    ]}
  ]
}
